Patent US20260131000A1 (Memorial Sloan Kettering, published 2026)
Results are given in words; binding and its absence hold for the method and conditions named. Some results given as binding are weak or reduced against the parent protein; the word gives no strength.

Protein sequences, listed by entry. Tags and fused reporters are not part of them. Lines headed by an entry give the natural chain unless they say otherwise; changes in a name come on top.
UniProt P32004: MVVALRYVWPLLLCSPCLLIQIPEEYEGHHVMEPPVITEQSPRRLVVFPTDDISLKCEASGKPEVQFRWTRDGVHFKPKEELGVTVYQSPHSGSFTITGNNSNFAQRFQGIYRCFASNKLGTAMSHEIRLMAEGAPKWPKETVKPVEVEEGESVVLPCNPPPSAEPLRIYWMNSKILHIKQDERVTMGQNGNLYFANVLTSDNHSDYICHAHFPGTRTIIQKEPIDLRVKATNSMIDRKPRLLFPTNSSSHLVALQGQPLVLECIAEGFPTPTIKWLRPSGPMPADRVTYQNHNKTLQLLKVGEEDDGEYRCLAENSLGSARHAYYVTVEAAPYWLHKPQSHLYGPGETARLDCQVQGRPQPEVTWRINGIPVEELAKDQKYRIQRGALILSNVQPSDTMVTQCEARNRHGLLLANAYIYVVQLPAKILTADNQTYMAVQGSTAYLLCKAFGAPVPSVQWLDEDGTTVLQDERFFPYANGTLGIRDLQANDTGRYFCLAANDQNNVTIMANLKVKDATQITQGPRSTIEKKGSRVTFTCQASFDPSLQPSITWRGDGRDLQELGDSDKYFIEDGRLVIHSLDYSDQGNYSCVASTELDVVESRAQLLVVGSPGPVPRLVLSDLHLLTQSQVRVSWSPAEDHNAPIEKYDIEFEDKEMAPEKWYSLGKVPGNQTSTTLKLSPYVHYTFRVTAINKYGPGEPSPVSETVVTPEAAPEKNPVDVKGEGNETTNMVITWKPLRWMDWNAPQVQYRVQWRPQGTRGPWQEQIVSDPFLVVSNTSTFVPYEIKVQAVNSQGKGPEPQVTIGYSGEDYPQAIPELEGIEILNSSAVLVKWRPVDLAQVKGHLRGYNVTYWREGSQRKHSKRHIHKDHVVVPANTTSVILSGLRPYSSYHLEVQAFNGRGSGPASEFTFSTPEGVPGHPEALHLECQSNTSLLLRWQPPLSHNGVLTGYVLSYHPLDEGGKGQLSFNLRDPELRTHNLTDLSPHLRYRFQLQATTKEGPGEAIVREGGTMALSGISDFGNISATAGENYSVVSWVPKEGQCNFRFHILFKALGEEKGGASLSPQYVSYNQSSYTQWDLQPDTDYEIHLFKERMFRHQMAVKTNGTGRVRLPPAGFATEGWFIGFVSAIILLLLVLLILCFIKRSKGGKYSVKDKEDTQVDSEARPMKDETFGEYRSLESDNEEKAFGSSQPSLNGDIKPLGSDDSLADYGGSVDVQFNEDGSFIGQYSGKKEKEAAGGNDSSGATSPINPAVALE

B1: 143G03 (antibody, V domains shown)
VH: QVQLRQSGAELVRPGTSVKMSCKASGYTFTNYYIHWVKQRPGQGLEWIGKIGPGSGSPYYNGMFKDKATLTVDTSSSTAYMQLSSLTSEDSAVYFCARWLLPFDYWGQGTTLTVSS
VL: QIVLSQSPGILSASPGEKVTMTCRASSSVNYMHWYQQKSGSSPKPWIFATSILASGVPPRFSGSGSGTSYSLTISSVEAEDTATYYCQQFSSDPLTFGAGTKLELK
B2: 13F04 (antibody, V domains shown)
VH: QVQLQQPGAELVKPGASVKLSCKASGYIFISYWMHWVKQRPGQGLEWIGEINPRNGRTNYNEKFKSKATLTVDKSSSTAYMQLTSLTSEDSAVYYCARGGDYGGSFDYWGQGTTLTVSS
VL: DIVLTQSPASLAVSLGQRATISCRASESVDSYGNSFMHWYQQKPGQPPKLLIYRASNLESGIPARFSGSGSRTDFTLTVNPVEADDVATYYCQQSNEDPWTFGGGTKLEIK
B3: 13G04 (antibody, V domains shown)
VH: QVQLVQSGAEVKKPGASVKVSCKASGYTFIGYYLHWVRQAPGQGLEWMGWINPNSGGTNSAQKFQGRVTMTRDTSISTTYMDLSRLRSDDTAVYYCARGGLERRDAFDIWGQGTLVTVSS
VL: DIQMTQSPSTLSASVGDRVTITCRASQSISNWLAWYQQKPGKAPNLLIYKASSLESGVPSRFSGSGSGTEFTLTISSLQPDDFATYYCQQYDTYRTFGQGTKVEIK
B4: 14A10 (antibody, V domains shown)
VH: EVQMVESGGGLVQPGGSLRLSCAAPGFIFSSYNMNWVRQAPGKGLEWVSYISSSSSTTYYADSVKGRFTISRDNAKNSLYLQMNSLRDEDTAVYYCASLYSGYDYYYYYGMDVWGQGTTVTVSS
VL: DIVMTQTPLSSPVSLGQPASISCRSSQSLVHSDGNTYLSWLQQRPGQPPRVLIYKISKRFSGVPDRFSGSGAGTDFTLKISRVEAEDVGVYYCMQATQFPFTFGPGTKVDIK

How the values were obtained:
[1] = biological target: human L1CAM overexpressed on HEK293T cells (human) (UniProt P32004); assay: flow cytometry, HEK293T cells overexpressing human L1CAM
[2] = biological target: cynomolgus monkey L1CAM-His (cynomolgus monkey); assay: BLI, soluble cynomolgus monkey L1CAM-His
[3] = biological target: human L1CAM-His (extracellular domain of human L1CAM, isoform 1, fused to a poly-histidine tag) (human) (UniProt P32004); assay: BLI, soluble human L1CAM-His

| Binder | binding [1] | binding [2] | binding [3] |
| --- | --- | --- | --- |
| B1 | binds | binds | binds |
| B2 |  | binds |  |
| B3 |  | binds |  |
| B4 |  | binds |  |
